The structures appear in SMILES notation. The list shows a part of the results. Further columns of the screen follow, without active or inactive calls. Compounds called inactive in the main read-out are mostly missing here. Potencies come from curve fits of mixed quality, noted in brackets.

The test in a line: qHTS Assay to Find Inhibitors of Chronic Active B-Cell Receptor Signaling. Conditions: ABC-DLBCL IkBa-CBG/CBR reporter, luminescence ratio (green luciferase fused to IkBa over red control in TMD8 lymphoma cells), 4 h. Put shortly:
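TMD8 human ABC-DLBCL cells with doxycycline-inducible IκBα–green luciferase fusion and unfused red luciferase, in 0.5% FBS medium; compounds up to 46 uM, 4 h at 37C. Green/red luminescence ratio, filter-overlap corrected, fitted to concentration-response curves.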

Setting [1] is: measured here: CBR red luminescence, cell number.
[2] abbreviates: measured here: IkBa-CBG green luminescence.

Consider `Cc1ccnc(NC(=O)CNC(=O)c2sc3ccccc3c2Cl)c1`, for which, under setting [1], the AC50 was 6.51 µM [rising, full curve].

As to `COc1cccc(NC(=O)c2cccc(N3C(=O)C4C5C=CC(C5)C4C3=O)c2)c1` (stereo unspecified), under setting [1], the half-maximal activity concentration (AC50) was 12.6 µM [falling, partial curve, poor fit].

Turning to `CCCSc1nnc2nc(C)cc(C)n12`, the half-maximal activity concentration (AC50) under setting [1] is 0.164 µM [rising, partial curve, poor fit].

Consider `COc1ccc2[nH]cc(C(O)CN3CCN(c4ccccc4)CC3)c2c1` (stereo unspecified), for which the AC50 under setting [1] is 15.8 µM [falling, partial curve, poor fit].

For `CC(=O)Nc1ccc(NC(=O)C(=O)NCC(c2ccco2)N2CCc3ccccc3C2)cc1` (stereo unspecified), the concentration at half-maximal activity (AC50) under setting [1] was 29.1 µM [rising, single point].

For the molecule `C/C(=N\Oc1cccc(F)n1)c1ccc(Cl)cc1Cl`, the AC50 under setting [1] is 3.66 µM [rising, full curve, poor fit].

Regarding `COc1ccc(CCC(=O)N(C)CC(=O)Nc2ccc(Cl)c(C(F)(F)F)c2)cc1`, the AC50 under setting [1] is 35.5 µM [falling, single point].

Consider `COc1ccc(NC(=O)c2ccc(Cl)c(S(=O)(=O)N3CCc4ccccc4C3)c2)cn1`, for which the AC50 under setting [1] was 1.84 µM [falling, partial curve, poor fit] and the AC50 under setting [2] was 3.66 µM [rising, partial curve, poor fit].

As to `Cn1c(NC(=O)c2ccccc2NC(=O)C(C)(C)C)nc2ccccc21`, under setting [1], the AC50 is 11.6 µM [falling, partial curve].

Consider `Cc1cc(C(=O)N2CCc3ccccc3C2)n[nH]1`, for which the half-maximal activity concentration (AC50) under setting [1] was 35.5 µM [falling, single point].

`O=C(NC1CC1)C1CCN(C2CCN(C(=O)/C=C/c3ccc(F)cc3)CC2)CC1`: under setting [1], the concentration at half-maximal activity (AC50) was 0.398 µM [falling, full curve, poor fit].

Regarding `COc1ccc(NC(=O)c2sc(-c3ccccc3)nc2C)c(OC)c1`, under setting [1], the concentration at half-maximal activity (AC50) was 3.98 µM [rising, full curve, poor fit].

As to `Cc1cc(C)n(Cc2ccc(NC(=O)c3nn(C)cc3[N+](=O)[O-])cc2)n1`, under setting [1], the AC50 was 2.06 µM [falling, full curve, poor fit].

Regarding `Cc1cccc(-n2c(O)c(C=NCCCN3CCOCC3)c3ccccc3c2=O)c1`, under setting [1], the concentration at half-maximal activity (AC50) is 29.1 µM [falling, partial curve, poor fit].

Regarding `CC(=O)Nc1ccc(C(=O)/C=C/c2ccc[nH]2)cc1`, the AC50 under setting [1] is 10 µM [falling, partial curve, poor fit].

Take `COc1ccc(C(=O)O/N=C(\N)Cc2ccc(Cl)c(Cl)c2)cc1OC`: the AC50 is 20.6 µM [falling, single point] under setting [1] and 29.1 µM [rising, partial curve, poor fit] under setting [2].

Consider `COC(=O)COc1ccc(S(=O)(=O)Nc2ccc3c(c2)OCO3)cc1`, for which the AC50 under setting [1] is 25.9 µM [falling, single point].

Consider `N#CC1=C2Sc3ccccc3N2CCCC1=O`, for which the concentration at half-maximal activity (AC50) under setting [1] was 12.6 µM [falling, partial curve].

Regarding `Cc1nc(Nc2ccc(S(=O)(=O)N3CCCC3)cc2)c2nnn(Cc3ccccc3)c2n1`, the AC50 under setting [1] is 1.64 µM [falling, partial curve, poor fit].

Consider `CCCC(=O)N(Cc1cc(=O)[nH]c2ccccc12)c1ccccc1OC`, for which, under setting [1], the AC50 is 20 µM [falling, partial curve, poor fit].

`Cc1ccc2c(C)c(C(=O)N3CCN(C4CCS(=O)(=O)C4)CC3)oc2c1C` (stereo unspecified): the AC50 under setting [1] was 35.5 µM [falling, single point].

As to `CCN1/C(=C/C=C/c2sc3ccccc3[n+]2CC)Sc2ccccc21`, the AC50 under setting [1] was 23.1 µM [falling, single point].

Turning to `O=C(COc1ccccc1)Nc1ccc2c(c1)C(=O)N(CC1CCCO1)C2=O` (stereo unspecified), the AC50 under setting [1] is 35.5 µM [rising, partial curve, poor fit].

Regarding `COC(=O)c1c(N2C(=O)[C@H]3[C@@H](C2=O)[C@]2(C(=O)Nc4c(C)cc(C)cc42)N2CCC[C@@H]32)sc(C)c1C`, the AC50 under setting [1] is 12.6 µM [falling, partial curve, poor fit].

Consider `CSCC[C@H](NC(=O)c1ccc(Cl)c([N+](=O)[O-])c1)c1nc2ccccc2[nH]1`, for which, under setting [1], the half-maximal activity concentration (AC50) is 10.3 µM [falling, partial curve, poor fit].

Take `Cc1ccc2cccc(NS(=O)(=O)c3ccccc3)c2n1`: the AC50 under setting [1] was 2.82 µM [rising, partial curve, poor fit].

As to `CC(NC(=O)c1ccccc1O)c1ccccc1` (stereo unspecified), the AC50 under setting [1] was 23.1 µM [rising, single point].

As for `CC1(C)C(c2ccccc2)=NC(c2ccc(Br)cc2)N1O` (stereo unspecified), the half-maximal activity concentration (AC50) under setting [1] was 5.62 µM [rising, single point].

Regarding `CCOC(=O)Cn1cc(Cl)cc(C(=O)Nc2ccccc2)c1=O`, under setting [1], the concentration at half-maximal activity (AC50) was 0.1 µM [rising, full curve, poor fit].

On to `COc1ccc(CNc2ncnc3cc(Cl)ccc23)cc1`, for which the AC50 under setting [1] is 28.2 µM [falling, single point].

With `COc1cc2c(cc1OC)C(C)N(C(=O)c1sccc1C)CC2` (stereo unspecified), the AC50 under setting [1] is 3.55 µM [rising, single point].

Regarding `COc1cc(C(=O)/C=C/c2cccnc2)c([N+](=O)[O-])cc1OC`, the AC50 under setting [1] is 9.2 µM [falling, partial curve, poor fit].

In the case of `COc1cccc(NC(=O)c2cc3ccccc3oc2=O)c1`, the half-maximal activity concentration (AC50) under setting [1] was 3.16 µM [falling, partial curve, poor fit].

With `O=C(COC(=O)Cc1cccs1)Nc1ccc(F)c(F)c1F`, the half-maximal activity concentration (AC50) under setting [1] is 9.2 µM [rising, partial curve].

For `Nc1ccc(/C=C/C(=O)c2cccs2)cc1`, the half-maximal activity concentration (AC50) under setting [1] is 12.6 µM [falling, partial curve, poor fit].

As to `O=C(CN1C(=O)CSc2ccccc21)N/N=C/c1ccco1`, the AC50 under setting [1] was 17.8 µM [falling, single point].

Regarding `C/C(=N\OCC(=O)Nc1ccccc1Br)c1cccs1`, the concentration at half-maximal activity (AC50) under setting [1] was 1.12 µM [rising, full curve, poor fit].

On to `CC(NC(=O)Nn1cnnc1)(C(F)(F)F)C(F)(F)F`, for which the half-maximal activity concentration (AC50) under setting [1] is 1.46 µM [rising, partial curve, poor fit].

In the case of `CC(C)CCNc1nc(N)c([N+](=O)[O-])c(NCC2CCCO2)n1` (stereo unspecified), the AC50 under setting [1] is 6.51 µM [rising, partial curve].

As for `O=S1(=O)C=C(Sc2nnc(-c3ccccc3)o2)c2ccccc21`, under setting [1], the AC50 is 1 µM [falling, full curve].

Take `O=S(=O)(Nc1cccc(-c2ccc(N3CCCCCC3)nn2)c1)c1ccc(C(F)(F)F)cc1`: the AC50 under setting [1] was 35.5 µM [rising, single point].

As to `COc1cc(/C=N\Nc2cc(=O)n(C)c(=O)n2C)ccc1O`, the AC50 under setting [1] was 29.1 µM [rising, single point].

`COc1ccc(NC2CCCN(C(=O)c3ccc(C(C)=O)s3)C2)cc1` (stereo unspecified): the half-maximal activity concentration (AC50) under setting [1] is 20 µM [rising, single point].

Consider `Cc1nn(C)c(C)c1CNC(=O)Nc1cccc(Cl)c1`, for which the AC50 under setting [1] was 28.2 µM [rising, single point].

In the case of `N#Cc1cc([N+](=O)[O-])ccc1Oc1cccc(/C=N/NC(=O)c2cccc(Cl)c2)c1`, the AC50 under setting [1] was 18.4 µM [rising, partial curve, poor fit].

With `Cc1cc(NCc2ccccc2Cl)n2nnnc2n1`, under setting [1], the half-maximal activity concentration (AC50) is 23.1 µM [falling, single point].

Consider `CC(C)c1ccc(NC(=O)CSc2nc(-c3ccccc3F)nc3nc[nH]c23)cc1`, for which, under setting [1], the concentration at half-maximal activity (AC50) is 20.6 µM [rising, single point].

Consider `Cc1[nH]c2ccccc2c1-c1csc(N)n1`, for which the AC50 under setting [1] is 22.4 µM [falling, partial curve, poor fit].

Turning to `COc1ccc(NC(=O)CN(c2ccc(C)cc2)S(=O)(=O)c2c(C)nn(C)c2C)cc1`, the half-maximal activity concentration (AC50) under setting [1] is 10 µM [falling, partial curve].

As to `Cc1cccn2c(=O)c(C=C(C#N)C#N)c(N3CCN(c4cccc(Cl)c4)CC3)nc12`, the AC50 under setting [1] was 35.5 µM [rising, single point].

As to `O=C(NC(=S)NCc1ccccc1)c1cccnc1`, the AC50 under setting [1] is 35.5 µM [rising, partial curve, poor fit].

With `CCCCNc1c(-c2ccc(OC)c(SC(C)CC)c2)nc2cc(C)ccn12` (stereo unspecified), under setting [1], the half-maximal activity concentration (AC50) is 29.1 µM [falling, single point].

Regarding `COc1ccc(N(CC(=O)Nc2cccc(C)c2)S(=O)(=O)c2c(C)n[nH]c2C)cc1`, the half-maximal activity concentration (AC50) under setting [1] is 6.31 µM [falling, full curve, poor fit].

With `COc1cccc(OCc2cc(/C=N/Nc3ccc(C(=O)O)cc3)ccc2OC)c1`, the AC50 under setting [1] is 0.282 µM [falling, full curve].

For the molecule `CNC(=O)/C(C#N)=C/c1c(F)cccc1Cl`, the AC50 under setting [1] was 29.1 µM [falling, single point].

On to `COc1ccc(S(=O)Cc2ccc(C(=O)NCc3cccc(OC)c3)o2)cc1` (stereo unspecified), for which, under setting [1], the half-maximal activity concentration (AC50) was 0.708 µM [falling, full curve, poor fit].

`COc1ccccc1C1CC(c2ccccc2)=NN1C(=O)c1ccccc1` (stereo unspecified): under setting [1], the half-maximal activity concentration (AC50) was 17.8 µM [falling, single point].

For `Cc1ccc2nc(NC(=O)COC(=O)c3ccc(Br)o3)sc2c1`, the half-maximal activity concentration (AC50) under setting [1] was 25.1 µM [falling, single point] and the concentration at half-maximal activity (AC50) under setting [2] was 31.6 µM [falling, single point].

In the case of `CCOc1ccccc1C(=O)Nc1nnc(CC)s1`, under setting [1], the AC50 is 8.2 µM [falling, partial curve, poor fit].

With `CCOC(=O)c1cc2n(c1/N=C/N(C)C)-c1ccccc1C2=O`, the AC50 under setting [1] is 0.164 µM [rising, full curve, poor fit].

Take `CCOc1ccc2c(c1)c(C(C)=O)c(C)n2-c1ccccc1`: under setting [1], the AC50 was 32.6 µM [rising, single point].

As for `CCc1ccc2c(c1)cc(C)c1nnc(SCC(=O)Nc3cc(OC)c(OC)cc3C(=O)O)n12`, the AC50 under setting [1] was 3.16 µM [falling, single point].

Turning to `CN1CCN(c2nc(-c3ccc(Br)cc3)nnc2-c2ccccc2)CC1`, the concentration at half-maximal activity (AC50) under setting [1] was 1.58 µM [falling, full curve].

The values above are taken from PubChem BioAssay AID493014 (National Center for Advancing Translational Sciences (NCATS), 2011).
